{"source": "PubChem BioAssay AID1688", "about": "(National Center for Advancing Translational Sciences (NCATS), 2009)", "note": "Hit rate of the full screen: of about 220,000 compounds, about 2,400 (1.1%) were called active. Inconclusive results, whose numbers are uncertain, are shown with a selection of clear calls. Calls follow the shape of the dose curve; as a rule, active = well fitted inhibition curve with a large enough effect; inconclusive = small, poorly fitted or top-dose-only effect, or effect the other way; inactive = no such curve, though single readings can be large or run the other way. Potencies beside an inconclusive call are fits to weak or partial responses and may not hold up. % is scaled to controls: 0 for no effect and ±100 for the full control effect; potency is read from the fitted curve at half-maximal effect."}
{"experiment": "qHTS Multiplex Assay to Identify Dual Action Probes in a Cell Model of Huntington: Aggregate Formation (GFP); also: nearly all actives have a fitted effect of over 60% in size", "settings": "PC12 HttQ103-GFP aggregates, Acumen cytometry, 40 h; activity change, negative = inhibition: at 46.1 µM (top of the series) unless noted", "from_the_text": "NIH Chemical Genomics Center [NCGC]\nNIH Molecular Libraries Probe Production centers Network [MLPCN]\nAssay Submitter (PI): Wei Zheng\nHuntington's disease is a neurodegenerative disorder caused by a trinucleotide repeat expansion in Exon 1 of the Huntingtin gene. The CAG trinucleotide encodes glutamine and polyglutamine expansions cause cell death in selective areas of the brain. Huntington polyglutamine repeats have the tendency to form aggregates which are observable in later stages of the disease. The exact nature of the aggregates, whether toxic, protective, or insignificant, is unclear.\nA stable PC12 cell line containing a gene fusion of Exon 1 of the Huntingtin gene linked to GFP under the control of the inducible ecdysone promoter were used as the cell-based model of Huntington Disease for high throughput screening. Exon 1 of the Huntingtin gene contained an expansion of 103 polyglutamines (Q103) which, when expressed, caused cell death and distinct, bright GFP aggregates. The amount of cell death and the size and intensity of GFP aggregates increased over time and induction level. The cell death were quantified with a measurement of ATP content in the cells. A maximal 40-50% of cell death was observed when the Huntington gene was induced in this cell line.\nWe optimized this assay in a homogeneous 1536 well format. A quantitative high throughput screen (qHTS) was conducted on the PC12 cells which were induced to express the toxic fusion construct. Small molecules which reduced aggregate formation were identified bu using a laser scanning cytometer calibrated to detect the aggregates in cell lysates.\nPC12 cells stably containing a construct with an ecdysone inducible promoter expressing GFP fused to the exon 1 of HTTQ103 (Huntington protein which containing a 103 ployglutamine expansion) were used.\nNCGC Assay Protocol Summary:\nSequence, Parameter, Description\n1, Reagent, 5 uL 1500 cells/well 1536 TC treated White clear bottom plate\n2, Compound, 23 nL Tebufenozide inducer (100 nM final) to all columns\n3, Compound, 23 nL 40 uM to 0.5 nM Libraries\n5, Reagent, 5 ul ATPLite cell death assay reagent\n6, Detector, Aggregate quantitation by Acumen Explorer\nMedia consisted of phenol red free DMEM + 5% equine serum (Hyclone # SH30072.03 ), 5% supplemented Bovine Calf Serum (Hyclone # SH30074.03 ), 1x pen/strep, no G418\nAcumen Explorer was used to quantitate GFP aggregates using the following criteria: […] laser excitation, 500-530 nm emission, the PMT was set at a voltage of 450 volts, and objects ranging in size of […] in size having a signal of 6 STDEV above background were collected.\nControl columns: 1 = DMSO, 2= 2 uM teb dilns (1:1), 4 = 100 nM Teb inducer. Sample columns received 100 nM Teb."}
{"molecule": "NC(=S)N1OC[C@@H]2COc3ccc4ccccc4c3[C@@H]21", "Potency": "inconclusive: 20 µM [inhibitor, partial curve]"}
{"molecule": "O=C1N/C(=N\\N=C\\c2cccs2)SC1Cc1cccc(Cl)c1Cl", "note": "(centres undefined)", "Potency": "active: 11.2 µM"}
{"molecule": "COc1ccc(Nc2ncnc3sc(-c4ccccc4)cc23)cc1", "Potency": "inconclusive: 22.4 µM [inhibitor, single point]"}
{"molecule": "COC(=O)c1cccc(Cn2c(Cl)c(/C=N/Nc3ccccc3C)sc2=O)c1", "Potency": "inconclusive: 35.5 µM [inhibitor, single point]"}
{"molecule": "N#Cc1ccsc1NC(=O)c1cccc([N+](=O)[O-])c1", "Potency": "inconclusive: 35.5 µM [inhibitor, single point]"}
{"molecule": "CCCC(=O)Nc1ccc2c(c1)nc(CN1CCCC1)n2C", "Potency": "inconclusive: 0.562 µM [inhibitor, full curve, poor fit]"}
{"molecule": "O=C(Nc1nc2ccccc2s1)c1cnccn1", "Potency": "inconclusive: 17.8 µM [inhibitor, partial curve]"}
{"molecule": "CCOc1ccc2nc(CN3CCN(Cc4ccsc4)C(CCO)C3)ccc2c1", "note": "(centres undefined)", "Potency": "inconclusive: 3.16 µM [inhibitor, single point]"}
{"molecule": "Fc1c(F)c(F)c(/C=N/NC(=S)Nc2cccnc2)c(F)c1F", "Potency": "inactive"}
{"molecule": "COc1ccc(N2CCN(C(=O)CSc3nnc4ncccn34)CC2)cc1", "Potency": "inconclusive: 0.562 µM [activator, full curve, poor fit]"}
{"molecule": "CCOC(=O)c1[nH]c(C)c(C(=O)N(C)Cc2ccccc2)c1C", "Potency": "inconclusive: 1.26 µM [inhibitor, single point]"}
{"molecule": "COc1cc(-c2nnc(SCc3cc(=O)oc4cc(O)c(O)cc34)o2)cc(OC)c1OC", "Potency": "inconclusive: 35.5 µM [inhibitor, single point]"}
{"molecule": "O=c1[nH]n(-c2ccc(F)cc2)c2ncccc12", "Potency": "inactive"}
{"molecule": "COC(=O)Nc1cc(C)nc2ccccc12", "Potency": "inconclusive: 0.501 µM [activator, partial curve]"}
{"molecule": "Cc1ccc(S(=O)(=O)NCCC(=O)OCn2nnc3ccccc3c2=O)cc1", "Potency": "inactive"}
{"molecule": "O=C(NC1CCN(C(=O)N2c3ccccc3Sc3ccccc32)CC1)c1ccco1", "Potency": "inconclusive: 11.2 µM [inhibitor, single point]"}
{"molecule": "O=C1c2ccccc2C(=O)N1CCCCSc1nc2ccccc2o1", "Potency": "inactive"}
{"molecule": "COCC1CCN(Cc2nc(-c3ccc(OC)cc3)no2)CC1", "Potency": "inconclusive: 35.5 µM [inhibitor, partial curve]"}
{"molecule": "Cc1cc(NC(=O)c2cc(-c3ccccn3)nc3ccccc23)no1", "Potency": "inactive"}
{"molecule": "O=C(COc1cc(Cl)c(Cl)cc1Cl)NCCc1ccccn1", "Potency": "inconclusive: 1.41 µM [inhibitor, partial curve]"}
{"molecule": "COc1ccc(-c2nnc(SCc3ccccc3F)o2)cc1OC", "Potency": "inconclusive: 0.562 µM [activator, full curve, poor fit]"}
{"molecule": "CCOC(=O)c1sc2nc(CC(=O)OC)nc(NCCN3CCOCC3)c2c1C", "Potency": "inactive"}
{"molecule": "CC1(C)NC(=O)N(CCOc2cccc(Cl)c2Cl)C1=O", "Potency": "inconclusive: 0.562 µM [inhibitor, full curve, poor fit]"}
{"molecule": "CCOC(=O)c1cnc(SCc2nc(N)nc(Nc3ccc(F)cc3)n2)nc1N", "Potency": "inconclusive: 10 µM [activator, partial curve]"}
{"molecule": "CCOc1ccc(NS(=O)(=O)c2ccc3c(c2)oc(=O)n3C)cc1", "Potency": "inconclusive: 11.2 µM [inhibitor, partial curve]"}
{"molecule": "C[C@@]12C(=O)OC(=O)[C@]1(C)[C@H]1CC[C@@H]2O1", "Potency": "inactive"}
{"molecule": "O=C(Nc1ccc(F)cc1)Nc1cc(OCC(F)(F)F)cc(OCC(F)(F)F)c1", "Potency": "active: 3.55 µM"}
{"molecule": "O=C(NC(=S)Nc1cc(S(=O)(=O)N2CCOCC2)ccc1N1CCOCC1)C1CCCC1", "Potency": "inconclusive: 6.31 µM [activator, single point]"}
{"molecule": "COc1ccc2c(c1)nc(N)n2Cc1ccccc1", "Potency": "inconclusive: 11.2 µM [inhibitor, single point]"}
{"molecule": "COc1ccccc1/C=c1\\sc2nc(-c3ccccc3OC)nn2c1=O", "Potency": "inactive"}
{"molecule": "COc1ccc(Cl)cc1NC(=S)NCCC(c1ccccc1)c1ccccc1", "Potency": "inconclusive: 12.6 µM [inhibitor, partial curve]"}
{"molecule": "CCOc1ccc(C2c3cc(OC)c(OC)cc3CC(=O)N2c2ccccc2)cc1", "note": "(centres undefined)", "Potency": "inconclusive: 3.16 µM [activator, full curve, poor fit]"}
{"molecule": "c1cncc(-c2nn3cnnc3s2)c1", "Potency": "inconclusive: 0.708 µM [inhibitor, partial curve]"}
{"molecule": "COc1cc(OC)c(C2N(c3cc(C)on3)C(=O)C3CCCN32)cc1OC", "note": "(centres undefined)", "Potency": "inconclusive: 14.1 µM [inhibitor, single point]"}
{"molecule": "COc1ccc(Cc2cnc(N)nc2N)cc1OC", "Potency": "inconclusive: 31.6 µM [activator, single point]"}
{"molecule": "Cc1ccc(C)c(NC(=S)NC(NC(=O)/C=C/c2ccccc2)C(Cl)(Cl)Cl)c1", "note": "(centres undefined)", "Potency": "inconclusive: 14.1 µM [inhibitor, single point]"}
{"molecule": "BrC(/C=N/Nc1nc(N2CCOCC2)nc(N2CCOCC2)n1)=C/c1ccccc1", "Potency": "inconclusive: 7.08 µM [activator, full curve]"}
{"molecule": "CC(=O)c1cccc(S(=O)(=O)Nc2ccc3nc(C)sc3c2)c1", "Potency": "inconclusive: 10 µM [inhibitor, partial curve]"}
{"molecule": "CCC(=O)NC(=S)Nc1ccc(NC(=O)c2ccc([N+](=O)[O-])cc2Cl)cc1", "Potency": "inconclusive: 35.5 µM [inhibitor, single point]"}
{"molecule": "CCCCN(CCCC)c1nc2ccccc2nc1NS(=O)(=O)c1ccc(NC(C)=O)cc1", "Potency": "inconclusive: 12.6 µM [activator, partial curve]"}
{"molecule": "O=C(COC(=O)c1ccco1)NCc1ccc2c(c1)OCO2", "activity change, negative = inhibition": "inactive: 6.11% [at 9.22 µM]"}
{"molecule": "COc1ccc(-c2[nH]ncc2CN2CCCN(C(=O)c3ccco3)CC2)cc1F", "activity change, negative = inhibition": "inactive: 7.41% [at 9.22 µM]"}
{"molecule": "CCOC(=O)c1cc(C)sc1/N=C/C1C(=O)CC(C)(C)CC1=O", "Potency": "inactive"}
{"molecule": "Cc1onc(-c2ccccc2Cl)c1C(=O)Nc1nnc(-c2cccc([N+](=O)[O-])c2)s1", "Potency": "inconclusive: 28.2 µM [inhibitor, single point]"}
